From the supplement of paper PMC7830784
Structures can show the parent of a compound that is named as a salt. Some of the results follow. Single values are uncertain here, since repeats match poorly.

These molecules were tested on Brugia pahangi adult female (assay: motility inhibition on day 3 relative to DMSO vehicle; higher = more active). Conditions: 10 µM; 3 days.

SMILES	motility inhibition on day 3 [%]
CN[C@@H]1CCc2[nH]c3ccc(C(N)=O)cc3c2C1 [Frovatriptan Succinate Monohydrate]	0.732
CNC(=O)c1c(I)c(NC(C)=O)c(I)c(C(=O)O)c1I [iothalamic acid]	18.3
COC1=CC(=O)C[C@@H](C)[C@]12Oc1c(Cl)c(OC)cc(OC)c1C2=O [griseofulvin]	0.626
CCC(=O)NCC[C@@H]1CCc2ccc3c(c21)CCO3 [ramelteon]	4.46
CN(C)CCC(c1ccc(Cl)cc1)c1ccccn1 (stereo not given) [chlorpheniramine maleate]	< 0
COc1cc(N)c(Cl)cc1C(=O)NC1CCN(CCCOc2ccc(F)cc2)CC1OC (stereo not given) [Cisapride monohydrate]	< 0
OCC(O)CN1CCN(c2ccccc2)CC1 (stereo not given) [dropropizine]	11.9
CCn1cc(C(=O)O)c(=O)c2cc(F)c(N3CCNCC3)cc21 [norfloxacin]	3.36
NCC1OC(OC2C(N)CC(N)C(OC3OC(CO)C(O)C(N)C3O)C2O)C(N)C(O)C1O (stereo not given) [becanamycin sulfate]	9.75
CC1(C)S[C@@H]2[C@H](N3C(=O)[C@@H](c4ccccc4)NC3(C)C)C(=O)N2[C@H]1C(=O)O [hetacillin potassium]	18.4
CCOC(=O)C1=C(C)NC(C)=C(C(=O)OC)C1c1cccc([N+](=O)[O-])c1 (stereo not given) [Nitrendipine]	38.9
NS(=O)(=O)c1cc2c(cc1C(F)(F)F)NC(Cc1ccccc1)NS2(=O)=O (stereo not given) [bendrofumethiazide]	19.4
CC(CN1c2ccccc2Sc2ccccc21)N(C)C (stereo not given) [Promethazine hydrochloride]	< 0
O=C(c1ccc(OCCN2CCCCC2)cc1)c1c(-c2ccc(O)cc2)sc2cc(O)ccc12 [raloxifene hydrochloride]	43.2
CCOC(=O)[C@H](CCc1ccccc1)N[C@@H](C)C(=O)N1CC2(C[C@H]1C(=O)O)SCCS2 [Spirapril Hydrochloride]	1
Nc1nc(N)nc(-c2cc(Cl)ccc2Cl)n1 [irsogladine maleate]	< 0
CCN1CCCC1CNC(=O)c1cc(S(=O)(=O)CC)c(N)cc1OC (stereo not given) [amisulpride]	16.3
S=P(N1CC1)(N1CC1)N1CC1 [thiotepa]	< 0
CCCOc1ccc2nc(NC(=O)OC)[nH]c2c1 [oxybendazole]	3.36
CCCCOc1ccc(OCCCN2CCOCC2)cc1 [Pramoxine]	15.4
CCCCOc1ccc(OCCCN2CCOCC2)cc1 [pramoxine hydrochloride]	26.2
CC1CCc2cc(F)cc3c(=O)c(C(=O)O)cn1c23 (stereo not given) [flumequine]	23.9
O=C(NCC1CCCCN1)c1cc(OCC(F)(F)F)ccc1OCC(F)(F)F (stereo not given) [Flecainide acetate]	< 0
COc1ccccc1OCCNCC(O)COc1cccc2[nH]c3ccccc3c12 (stereo not given) [carvedilol]	13.1
CC(C)c1nc(CN(C)C(=O)N[C@H](C(=O)N[C@@H](Cc2ccccc2)C[C@H](O)[C@H](Cc2ccccc2)NC(=O)OCc2cncs2)C(C)C)cs1 [ritonavir]	51.9

SMILES	motility inhibition on day 3 [%]
CC(=O)Oc1cccc(C(=O)O)c1OC(C)=O [dipyrocetyl]	< 0
CC1OC1P(=O)(O)O (stereo not given) [fosphomycin]	10.1
CC(C)[C@H]1CC[C@H](C(=O)N[C@H](Cc2ccccc2)C(=O)O)CC1 [nateglinide]	18.6
Nc1ccc(S(N)(=O)=O)cc1 [sulfanilamide]	21.1
CCN1CCC[C@H]1CNC(=O)c1cc(S(N)(=O)=O)ccc1OC	12
CCOc1nc2cccc(C(=O)OC(C)OC(=O)OC3CCCCC3)c2n1Cc1ccc(-c2ccccc2-c2nn[nH]n2)cc1 (stereo not given) [candesartan cilextil]	12.8
CC(CCc1ccc(O)cc1)NCCc1ccc(O)c(O)c1 (stereo not given) [dobutamine hydrochloride]	17.3
CC(CCc1ccc(O)cc1)NCCc1ccc(O)c(O)c1 (stereo not given) [Dobutamine hydrochloride]	12.4
CC[C@]12CCCN3CCc4c(n(c5ccccc45)[C@@](O)(C(=O)OC)C1)[C@@H]32 [vincamine]	< 0
CCC(C)(C)c1ccc(CC(C)CN2C[C@@H](C)O[C@@H](C)C2)cc1 (stereo not given in full) [amorolfine hydrochloride]	4.39
CCCc1nc(C(C)(C)O)c(C(=O)OCc2oc(=O)oc2C)n1Cc1ccc(-c2ccccc2-c2nnn[nH]2)cc1 [olmesartan medoxomil]	15.7
Cn1c(=O)c2c(ncn2CC(O)CO)n(C)c1=O (stereo not given) [dyphylline]	3.62
Nc1nccs1 [aminothiazole]	< 0
NC(=O)c1cccnc1 [niacinamide]	9.13
C[C@@H]1CC2C3C[C@H](F)C4=CC(=O)C=C[C@]4(C)[C@@]3(F)[C@@H](O)C[C@]2(C)[C@@]1(O)C(=O)COC(=O)C(C)(C)C (stereo not given in full) [flumethazone pivalate]	22.5
O=C(O)CCc1nc2ccccc2[nH]1 [procodazole]	< 0
C=C(NC(=O)C(=C)NC(=O)c1csc(C2=N[C@@H]3c4csc(n4)[C@H]4NC(=O)c5csc(n5)[C@H]([C@](C)(O)[C@@H](C)O)NC(=O)[C@H]5CSC(=N5)/C(=C/C)NC(=O)[C@H]([C@@H](C)O)NC(=O)c5csc(n5)[C@]3(CC2)NC(=O)[C@H](C)NC(=O)C(=C)NC(=O)[C@H](C)NC(=O)[C@H]([C@@H](C)CC)N[C@@H]2C=Cc3c([C@H](C)O)cc(nc3[C@H]2O)C(=O)O[C@@H]4C)n1)C(N)=O [thiostrepton]	< 0
NC(=O)C1(N2CCCCC2)CCN(CCCC(=O)c2ccc(F)cc2)CC1 [pipamperone]	< 0
CCCCCCCCCCCCCCCC[N+](C)(C)C [cetrimonium bromide]	83.1
CC1=C(C(=O)O)N2C(=O)[C@@H](NC(=O)[C@H](N)c3ccc(O)cc3)[C@H]2SC1 [cefadroxil]	16.7
CC(C)(Oc1ccc(C2CC2(Cl)Cl)cc1)C(=O)O (stereo not given) [ciprofibrate]	4.1
O=C(O)c1cc(O)c(O)c(O)c1 [gallic acid]	< 0
CCN(CC)C(=O)N1CCN(C)CC1 [diethylcarbamazine citrate]	1.61
O=P(O)(O)C(O)(Cc1cccnc1)P(=O)(O)O [risedronate sodium]	< 0
COc1ccc(-n2nc(CCC(=O)N(C)O)cc2-c2ccc(Cl)cc2)cc1 [tepoxalin]	25.1

Looked up above:
Value of CC(CCc1ccc(O)cc1)NCCc1ccc(O)c(O)c1 (stereo not given) [dobutamine hydrochloride] under motility inhibition on day 3 [%]: 17.3
Value of CC[C@]12CCCN3CCc4c(n(c5ccccc45)[C@@](O)(C(=O)OC)C1)[C@@H]32 [vincamine] under motility inhibition on day 3 [%]: < 0
Value of O=C(O)c1cc(O)c(O)c(O)c1 [gallic acid] under motility inhibition on day 3 [%]: < 0

Additional results

SMILES	motility inhibition on day 3 [%]
CCCCC(CC)COC(=O)c1ccccc1O (stereo not given) [octisalate]	< 0
CCN(CCCc1ccccc1)CCCc1ccccc1 [alverine citrate]	12.4
CC(=O)[C@H]1CC[C@H]2[C@@H]3CC=C4C[C@@H](OC(=O)CCC(=O)O)CC[C@]4(C)[C@H]3CC[C@]12C [pregnenolone succinate]	2.1
CC(CCc1ccc(O)cc1)NCC(O)c1ccc(O)cc1 (stereo not given) [ractopamine hydrochloride]	9.81
CC[C@]1(O)C[C@@H]2CN(CCc3c([nH]c4ccccc34)[C@@](C(=O)OC)(c3cc4c(cc3OC)N(C)[C@H]3[C@@](O)(C(=O)OC)[C@H](OC(C)=O)[C@]5(CC)C=CCN6CC[C@]43[C@@H]65)C2)C1 [vinblastine sulfate]	47.4
Clc1ccc(COC(Cn2ccnc2)c2ccc(Cl)cc2Cl)cc1 (stereo not given) [econazole nitrate]	99.6
NC(=O)NO [hydroxyurea]	35.1
Clc1ccccc1C(c1ccccc1)(c1ccccc1)n1ccnc1 [clotrimazole]	85.3
CO/N=C1\CN(c2nc3c(cc2F)c(=O)c(C(=O)O)cn3C2CC2)CC1CN (stereo not given) [gemifloxacin mesylate]	0.132
CN1CCC[C@H]1c1cccnc1 [nicotine ditartrate]	< 0
O=S(=O)(O)CCSSCCS(=O)(=O)O [dimesna]	3.67
CCCC(C(=O)OCCN(CC)CC)(c1ccccc1)c1ccccc1 [SKF-525A hydrochloride]	24.6
Cc1cc(CC(C)CC(C)(C)C)n(O)c(=O)c1 (stereo not given) [piroctone olamine]	72.6
Nc1nc(=O)c2c([nH]1)NCC(CNc1ccc(C(=O)N[C@@H](CCC(=O)O)C(=O)O)cc1)N2C=O (stereo not given in full) [leucovorin calcium]	24.9
COc1ccc2nc3cc(Cl)ccc3c(Nc3cc(CN4CCCC4)c(O)c(CN4CCCC4)c3)c2n1 [pyronaridine tetraphosphate]	5.31
CCCCOc1ccc(CC(=O)NO)cc1 [bufexamac]	1.9
CC(=O)OC(C)C[N+](C)(C)C (stereo not given) [methacholine chloride]	34.6
C=CCc1ccccc1OCC(O)CNC(C)C (stereo not given) [Alprenolol hydrochloride]	21.9
NC[C@H]1CC[C@H](C(=O)O)CC1 [tranexamic acid]	4.47
Oc1c(Cl)cc(Cl)cc1Sc1cc(Cl)cc(Cl)c1O [bithionol]	81.3
O=C(O)c1cc(=O)c2c(OCC(O)COc3cccc4oc(C(=O)O)cc(=O)c34)cccc2o1 [cromolyn sodium]	< 0
CC(=O)c1ccc2c(c1)N(CCCN1CCN(CCO)CC1)c1ccccc1S2 [acetophenazine maleate]	5.78
OC[C@H]1O[C@H](O[C@H]2[C@H](O)[C@@H](O)C(O)O[C@@H]2CO)[C@H](O)[C@@H](O)[C@@H]1O (stereo partly drawn) [d-(+)-maltose]	22.6
O=C1NC(c2ccccc2)(c2ccccc2)C(=O)N1COP(=O)(O)O [Fosphenytoin disodium salt hydrate]	10.6
CC(C)CCC[C@@H](C)[C@H]1CC[C@H]2[C@@H]3CC=C4C[C@@H](O)CC[C@]4(C)[C@H]3CC[C@]12C [cholesterol]	1.48
